These results are taken from PMC6639074.

Sequences of proteins named here, by UniProt entry; tags and fusion partners are left off. A change or cut given only in a name is not applied to a line headed by its entry. A line that says so, or that is headed by a name, gives the form on record, which may keep a tag or linker.
N-Ras(S17N)-BirA*-HA-MAO (P01111, form named): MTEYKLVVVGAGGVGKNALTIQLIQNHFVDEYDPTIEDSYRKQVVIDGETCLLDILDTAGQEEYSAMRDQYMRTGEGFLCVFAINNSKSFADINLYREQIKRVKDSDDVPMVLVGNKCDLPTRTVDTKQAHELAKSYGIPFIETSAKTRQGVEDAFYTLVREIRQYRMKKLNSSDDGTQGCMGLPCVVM
N-Ras(G12D)-BirA*-HA-MAO (P01111, form named): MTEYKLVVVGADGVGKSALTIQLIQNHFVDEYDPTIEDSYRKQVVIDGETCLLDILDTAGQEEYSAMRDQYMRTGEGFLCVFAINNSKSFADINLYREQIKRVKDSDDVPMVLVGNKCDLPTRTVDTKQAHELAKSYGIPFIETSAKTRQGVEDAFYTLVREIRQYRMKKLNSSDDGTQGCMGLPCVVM

In experiment [1] the target is N-Ras(S17N)-BirA*-HA-MAO (human) (UniProt P01111). Kind of experiment: proximity labelling; MitoID: GTPase-BirA*-HA-MAO chimera on mitochondria of transiently transfected HEK293T cells, 50 uM biotin 18 h, streptavidin beads, mass spectrometry, biological triplicates; hits by WD scores and volcano plots against the GDP-locked forms.
Experiment [2] has as its target N-Ras(G12D)-BirA*-HA-MAO (human) (UniProt P01111). The description is as above.

These are yes or no findings as the source states them, for the method shown. In cells and extracts the contact can be indirect. These calls come from enrichment with a bait or labelling near it, and not all partners need be listed.

B1: RAP1GDS1 (protein, UniProt P52306 1-607)
chain: MDNLSDTLKKLKITAVDKTEDSLEGCLDCLLQALAQNNTETSEKIQASGILQLFASLLTPQSSCKAKVANIIAEVAKNEFMRIPCVDAGLISPLVQLLNSKDQEVLLQTGRALGNICYDSHEGRSAVDQAGGAQIVIDHLRSLCSITDPANEKLLTVFCGMLMNYSNENDSLQAQLINMGVIPTLVKLLGIHCQNAALTEMCLVAFGNLAELESSKEQFASTNIAEELVKLFKKQIEHDKREMIFEVLAPLAENDAIKLQLVEAGLVECLLEIVQQKVDSDKEDDITELKTGSDLMVLLLLGDESMQKLFEGGKGSVFQRVLSWIPSNNHQLQLAGALAIANFARNDANCIHMVDNGIVEKLMDLLDRHVEDGNVTVQHAALSALRNLAIPVINKAKMLSAGVTEAVLKFLKSEMPPVQFKLLGTLRMLIDAQAEAAEQLGKNVKLVERLVEWCEAKDHAGVMGESNRLLSALIRHSKSKDVIKTIVQSGGIKHLVTMATSEHVIMQNEALVALALIAALELGTAEKDLESAKLVQILHRLLADERSAPEIKYNSMVLICALMGSECLHKEVQDLAFLDVVSKLRSHENKSVAQQASLTEQRLTVES
Regarding B1, in experiment [1], the binding entry was “binds”.

B2: RAPGEF2 (protein, UniProt Q9Y4G8 1-1499)
chain: MKPLAIPANHGVMGQQEKHSLPADFTKLHLTDSLHPQVTHVSSSHSGCSITSDSGSSSLSDIYQATESEAGDMDLSGLPETAVDSEDDDDEEDIERASDPLMSRDIVRDCLEKDPIDRTDDDIEQLLEFMHQLPAFANMTMSVRRELCAVMVFAVVERAGTIVLNDGEELDSWSVILNGSVEVTYPDGKAEILCMGNSFGVSPTMDKEYMKGVMRTKVDDCQFVCIAQQDYCRILNQVEKNMQKVEEEGEIVMVKEHRELDRTGTRKGHIVIKGTSERLTMHLVEEHSVVDPTFIEDFLLTYRTFLSSPMEVGKKLLEWFNDPSLRDKVTRVVLLWVNNHFNDFEGDPAMTRFLEEFENNLEREKMGGHLRLLNIACAAKAKRRLMTLTKPSREAPLPFILLGGSEKGFGIFVDSVDSGSKATEAGLKRGDQILEVNGQNFENIQLSKAMEILRNNTHLSITVKTNLFVFKELLTRLSEEKRNGAPHLPKIGDIKKASRYSIPDLAVDVEQVIGLEKVNKKSKANTVGGRNKLKKILDKTRISILPQKPYNDIGIGQSQDDSIVGLRQTKHIPTALPVSGTLSSSNPDLLQSHHRILDFSATPDLPDQVLRVFKADQQSRYIMISKDTTAKEVVIQAIREFAVTATPDQYSLCEVSVTPEGVIKQRRLPDQLSKLADRIQLSGRYYLKNNMETETLCSDEDAQELLRESQISLLQLSTVEVATQLSMRNFELFRNIEPTEYIDDLFKLRSKTSCANLKRFEEVINQETFWVASEILRETNQLKRMKIIKHFIKIALHCRECKNFNSMFAIISGLNLAPVARLRTTWEKLPNKYEKLFQDLQDLFDPSRNMAKYRNVLNSQNLQPPIIPLFPVIKKDLTFLHEGNDSKVDGLVNFEKLRMIAKEIRHVGRMASVNMDPALMFRTRKKKWRSLGSLSQGSTNATVLDVAQTGGHKKRVRRSSFLNAKKLYEDAQMARKVKQYLSNLELEMDEESLQTLSLQCEPATNTLPKNPGDKKPVKSETSPVAPRAGSQQKAQSLPQPQQQPPPAHKINQGLQVPAVSLYPSRKKVPVKDLPPFGINSPQALKKILSLSEEGSLERHKKQAEDTISNASSQLSSPPTSPQSSPRKGYTLAPSGTVDNFSDSGHSEISSRSSIVSNSSFDSVPVSLHDERRQRHSVSIVETNLGMGRMERRTMIEPDQYSLGSYAPMSEGRGLYATATVISSPSTEELSQDQGDRASLDAADSGRGSWTSCSSGSHDNIQTIQHQRSWETLPFGHTHFDYSGDPAGLWASSSHMDQIMFSDHSTKYNRQNQSRESLEQAQSRASWASSTGYWGEDSEGDTGTIKRRGGKDVSIEAESSSLTSVTTEETKPVPMPAHIAVASSTTKGLIARKEGRYREPPPTPPGYIGIPITDFPEGHSHPARKPPDYNVALQRSRMVARSSDTAGPSSVQQPHGHPTSSRPVNKPQWHKPNESDPRLAPYQSQGFSTEEDEDEQVSAV
Consider B2, for which the binding entry in experiment [2] is listed as “binds”.
